These are literature values, as cited in patent publication US20160281133A1, “STABILIZATION AND ISOLATION OF EXTRACELLULAR NUCLEIC ACIDS” (QIAGEN GMBH, priority 2013, published 2016).

The series relates to PARP cleavage. The settings on record: cited from earlier work.

Each structure is given as a SMILES string. Structures were worked out from names or drawings and are uncertain.

For `CC(=O)N[C@@H](C)C(=O)N[C@@H](C)C(=O)N[C@H](C(=O)N[C@@H](C)C(=O)N[C@@H](CC(C)C)C(=O)N[C@@H](CC(C)C)C(=O)N1CCC[C@H]1C(=O)N[C@@H](C)C(=O)N[C@H](C(=O)N[C@@H](CC(C)C)C(=O)N[C@@H](CC(C)C)C(=O)N[C@@H](C)C(=O)N[C@@H](CC(C)C)C(=O)N[C@@H](CC(C)C)C(=O)N[C@@H](C)C(=O)N1CCC[C@H]1C(=O)N[C@@H](CC(=O)O)C(=O)N[C@@H](CCC(=O)O)C(=O)N[C@H](C(=O)N[C@H](C=O)CC(=O)O)C(C)C)C(C)C)C(C)C`, the IC50 (in general, the point on the concentration scale where inhibition reaches its midpoint) is 0.2 nM.
